In all, about 390,000 compounds went through this assay and about 760 (0.19%) were called active. This list was built around the results that the source calls inconclusive (neither active nor inactive); the mix of calls is not that of the screen. Calls come from the whole dose curve; as a rule, active = well fitted inhibition curve with a large enough effect; inconclusive = small, poorly fitted or top-dose-only effect; inactive = flat fitted curve, though single readings scatter. A potency beside an inconclusive call is a rough fit, not a confirmed value.
Assay: qHTS for Inhibitors of Vif-A3F Interactions: qHTS; note: nearly all actives have a fitted effect of over 65% in size; for activity, negative = active: % of control where 0% means no effect
Settings: HeLa A3F-eYFP + Vif (tagged APOBEC3F with the HIV-1 protein that degrades it), YFP fluorescence increase; series mostly up to 46.1 µM; activity, negative = active: at the top concentration
Procedure, shortened: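 HeLa cells stably expressing A3F-eYFP plus Vif, plated and incubated overnight at 37 deg C, then exposed to compounds overnight at 37 deg C. Blocked degradation read as raised yellow fluorescence (Ex 488/Em 500-530).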
Potency is the fitted concentration of half-maximal effect.

Structure (SMILES)	Potency	activity, negative = active
COc1cc(/C=C2\CC/C(=C\c3ccc(OCCO)c(OC)c3)C2=O)ccc1OCCO	inconclusive: 20 µM [inhibitor, partial curve, poor fit]	–
Oc1ccccc1/C=N/Nc1nc2ccccc2o1	inconclusive: 1.26 µM [inhibitor, full curve, poor fit]	–
CCc1nnc(NS(=O)(=O)c2ccc(NC(=S)NC(=O)c3ccc(OC)c(OC)c3)cc2)s1	–	inactive: 1.13%
Cc1ccc(NC(=O)COC(=O)CCC(=O)c2cccs2)c(C)c1	inconclusive: 7.08 µM [inhibitor, partial curve, poor fit]	–
COc1ccccc1CCNC(=O)Cc1c(C)c2cc3c(C(C)(C)C)coc3c(C)c2oc1=O	–	inactive: 2.53%
COc1ccc(CCNC(=O)c2ccc(-n3c(C)cc4c3CCCC4)cc2)cc1OC	inconclusive: 25.1 µM [inhibitor, single point]	–
Cc1nc2ccccc2c(=O)n1/N=C/c1cc(Br)ccc1O	inconclusive: 15.8 µM [inhibitor, single point]	–
CC1=Nc2ccccc2/C1=C/c1c(C)[nH]c2ccccc12	inconclusive: 35.5 µM [inhibitor, single point]	–
O=C1/C(=C\c2ccc(O)cc2)SC(=S)N1/N=C/c1ccc(O)cc1	inconclusive: 8.91 µM [inhibitor, partial curve, poor fit]	–
N=c1oc2ccccc2cc1-c1nc(-c2ccc(Cl)cc2)cs1	inconclusive: 35.5 µM [inhibitor, single point]	–
O=C(CN1C(=O)c2ccccc2S1(=O)=O)NCCSCc1c(F)cccc1Cl	inconclusive: 22.4 µM [inhibitor, single point]	–
COc1ccc(Cl)cc1NC(=O)CSc1c2c(nc3ccccc13)CCC2	inconclusive: 22.4 µM [inhibitor, single point]	–
Cc1ccc(SCC(=O)NC(=O)c2ccc(S(=O)(=O)N(C)C)cc2)cc1C	inconclusive: 22.4 µM [inhibitor, single point]	–
OCCC1CN(Cc2ccccn2)CCN1C1CCCC1 (stereo unspecified)	inconclusive: 6.31 µM [inhibitor, single point]	–
O=C(/C=C/c1cccc([N+](=O)[O-])c1)NC(=S)Nc1cccc(NC(=O)c2ccccc2Cl)c1	inconclusive: 15.8 µM [inhibitor, single point]	–
CN1CCC[C@H]1CCNc1ccc2c(=O)c3ccccc3n(C)c2c1	inconclusive: 35.5 µM [inhibitor, single point]	–
COc1cc(NC(=O)CSc2nc(C3CC3)nc3ccccc23)cc(OC)c1	inconclusive: 1.78 µM [inhibitor, partial curve, poor fit]	–
CCOC(=O)c1ccc(N=c2ssnc2Cl)cc1	inconclusive: 35.5 µM [inhibitor, single point]	–
NC(=S)N/N=C/c1ccc2cccc(OCc3ccccc3)c2n1	inconclusive: 35.5 µM [inhibitor, single point]	–
CC(C)(C)c1ccc(C2C(C(=O)c3ccco3)=C(O)C(=O)N2CC2CCCO2)cc1 (stereo unspecified)	–	inactive: -1.34%
CCOC(=O)c1c(C)[nH]c(C(=O)OCC(=O)Nc2sccc2C(N)=O)c1C	–	inactive: -14.4%
O=C(NCc1ccco1)c1cnn2c(C(F)F)cc(-c3ccccc3)nc12	inconclusive: 5.01 µM [inhibitor, single point]	–

Structure (SMILES)	Potency	activity, negative = active
NC(=O)CC(NC(=O)Cc1ccc(Cl)cc1)c1ccc(NC2CCCC2)c([N+](=O)[O-])c1 (stereo unspecified)	inconclusive: 31.6 µM [inhibitor, single point]	–
COc1ccccc1NC(=O)Cc1ccc(-c2ccccc2)cc1	inconclusive: 3.16 µM [inhibitor, full curve, poor fit]	–
NC(=O)c1c(NC(=O)C2c3ccccc3Oc3ccccc32)sc2c1CCCCC2	inconclusive: 35.5 µM [inhibitor, single point]	–
O=C1/C(=C/c2cccnc2)CCC/C1=C\c1cccnc1	–	inactive: 4.71%
CC(NC(=O)NNC(N)=S)(C(F)(F)F)C(F)(F)F	inconclusive: 35.5 µM [inhibitor, single point]	–
CC(C)n1cc(CN2CCC(C(=O)Nc3cccc(-c4cccc(Cl)c4)c3)CC2)cn1	–	inactive: 12.1%
CN(CCC#N)S(=O)(=O)c1ccc2[nH]cc(C(=O)NCCc3ccccc3)c(=O)c2c1	inconclusive: 6.31 µM [inhibitor, partial curve, poor fit]	–
O=C(NC(=S)Nc1ccccc1[N+](=O)[O-])c1ccco1	inconclusive: 35.5 µM [inhibitor, single point]	–
N#Cc1ccc(Cl)cc1NC(=O)CNCc1cccs1	inconclusive: 10 µM [inhibitor, partial curve, poor fit]	–
CN(C(=O)C1CC1)C1CCS(=O)(=O)C1 (stereo unspecified)	inconclusive: 3.16 µM [inhibitor, partial curve, poor fit]	–
COc1cccc(NC(=O)CN(C)C(=O)/C=C/c2ccc3ccccc3n2)c1	inconclusive: 35.5 µM [inhibitor, single point]	–
COc1ccc(O)c(/C=C2/SC(=S)N(Cc3ccccc3)C2=O)c1	inconclusive: 11.2 µM [inhibitor, single point]	–
O=C(COC(=O)c1cc([N+](=O)[O-])ccc1N1CCOCC1)NCc1ccc(F)cc1	inconclusive: 6.31 µM [inhibitor, single point]	–
COC(=O)Cn1c2ccc(Cl)cc2c2nc(C)sc21	–	inactive: 12.7%
Cc1ccc2nc(-c3ccc(O)c(O)c3)cn2c1	–	inactive: -8.36%
COc1cc(NC(=O)c2ccc([N+](=O)[O-])o2)ccc1NC(=O)c1ccco1	inconclusive: 3.55 µM [inhibitor, single point]	–
Oc1ccc(/C=C/c2ccnc3ccccc23)cc1	–	inactive: 5.68%
COc1ccc(NC(=O)CCNS(=O)(=O)c2cccc3nonc23)cc1Cl	inconclusive: 2.24 µM [inhibitor, full curve]	–
Cc1c(NC(=O)CSc2n[nH]c(=O)n2-c2ccccc2)c(=O)n(-c2ccccc2)n1C	–	inactive: -19.1%
O=C1CC(c2nnc(Cc3ccccc3Cl)o2)CN1c1ccccc1 (stereo unspecified)	–	inactive: -2.43%
CC(C)=CCNc1ncnc2c1c(C#N)cn2C1OC(CO)C(O)C1O (stereo unspecified)	–	inactive: -9.21%
Cc1ccc(S(=O)(=O)N(C)c2nc3ccccc3n3c(C(C)C)nnc23)cc1	inconclusive: 35.5 µM [inhibitor, single point]	–

Record cards, as listed above:
O=C1CC(c2nnc(Cc3ccccc3Cl)o2)CN1c1ccccc1 (stereo unspecified) is listed as activity, negative = active: inactive: -2.43%
CC(C)=CCNc1ncnc2c1c(C#N)cn2C1OC(CO)C(O)C1O (stereo unspecified) is listed as activity, negative = active: inactive: -9.21%
NC(=O)CC(NC(=O)Cc1ccc(Cl)cc1)c1ccc(NC2CCCC2)c([N+](=O)[O-])c1 (stereo unspecified) is listed as Potency: inconclusive: 31.6 µM [inhibitor, single point]
CN(CCC#N)S(=O)(=O)c1ccc2[nH]cc(C(=O)NCCc3ccccc3)c(=O)c2c1 is listed as Potency: inconclusive: 6.31 µM [inhibitor, partial curve, poor fit]

Additional results.

Structure (SMILES)	Potency	activity, negative = active
Cc1[nH]n(-c2ccccc2)c(=O)c1/C=N/N1C(=O)c2ccc3c4c(ccc(c24)C1=O)CC3	–	inactive: -12.4%
COc1ccc(-c2cc(N)n(S(=O)(=O)c3c(F)c(F)c(F)c(F)c3F)n2)cc1OC	inconclusive: 2.82 µM [inhibitor, partial curve, poor fit]	–
COc1cc(/C=C2\SC(=S)N(NC(=O)c3ccc(O)c(OC)c3)C2=O)ccc1O	active: 10 µM	–
CC(=O)N1CCc2c(sc(NC(=O)C3CCCN3S(=O)(=O)c3cccs3)c2C(N)=O)C1 (stereo unspecified)	inconclusive: 31.6 µM [inhibitor, single point]	–
CC(=O)c1ccc(NC(=O)CCNC(=O)c2ccccc2Cl)cc1	inconclusive: 17.8 µM [inhibitor, single point]	–
COc1cccc(NC(=O)CSCn2nnc3c(=O)[nH]c(Cc4ccc(F)cc4)nc32)c1	–	inactive: -3.56%
CCN(CC)S(=O)(=O)c1cc(NC(=O)NCCCl)ccc1C	inconclusive: 20 µM [inhibitor, partial curve, poor fit]	–
COc1ccc(/C=C2\SC(=S)N(CCC(=O)NCCCN3CCOCC3)C2=O)cc1	inconclusive: 6.31 µM [inhibitor, single point]	–
Cc1cc(/C=C2\Sc3ccccc3N2C)cc(C)[n+]1CC1CCCO1 (stereo unspecified)	inconclusive: 7.08 µM [inhibitor, partial curve, poor fit]	–
N#CCSc1ccccc1NC(=O)COC(=O)Cc1c[nH]c2ccccc12	inconclusive: 22.4 µM [inhibitor, partial curve, poor fit]	–
O=C(CC1C(=O)NCCN1Cc1cccc(F)c1F)NCCCC1CCCC1 (stereo unspecified)	–	inactive: 1.28%
CCCC(=NCCc1c(C)[nH]c2ccccc12)C1=C(O)CC(c2ccccc2)CC1=O (stereo unspecified)	–	inactive: -0.257%
CCCOc1ccc(N2C(=O)CC(NCCc3ccc(S(N)(=O)=O)cc3)C2=O)cc1 (stereo unspecified)	inconclusive: 3.98 µM [inhibitor, single point]	–
NS(=O)(=O)c1ccc(CCNC(=O)CCCn2c(SCC(=O)N3CCCC3)nc3ccsc3c2=O)cc1	inconclusive: 6.31 µM [inhibitor, single point]	–
COCc1ccc(C(=O)N(C)CC2CCCN(CCc3ccccc3F)C2)o1 (stereo unspecified)	inconclusive: 3.98 µM [inhibitor, single point]	–
CCCCn1c(N)c(N(CC(C)C)C(=O)c2cc(-c3ccc(F)cc3)nc3ccccc23)c(=O)[nH]c1=O	inconclusive: 35.5 µM [inhibitor, single point]	–
Cc1ccc(-c2nnc(CSc3nnc(COc4ccccc4)n3-c3ccccc3)o2)cc1	–	inactive: 3.77%
O=C(COC(=O)c1cc2ccccc2oc1=O)Nc1cccc(Br)c1	inconclusive: 20 µM [inhibitor, single point]	–
NC(=O)c1ccc(NC(=O)COC(=O)c2ccc3c(c2)OCCO3)cc1	inconclusive: 20 µM [inhibitor, partial curve, poor fit]	–
C/C(=N\NC(=O)NC1CCCCC1)c1ccc(Cl)s1	inconclusive: 6.31 µM [inhibitor, single point]	–
CC(C)NCCCOc1ccc(C(C)(C)c2ccccc2)cc1	–	inactive: -5.13%
CCCSc1nsc(NC(=O)Nc2ccc(F)cc2F)n1	inconclusive: 20 µM [inhibitor, single point]	–
